Assay results published in patent US8470587B2, “129Xe biosensors and their use” (The Trustees of the University of Pennsylvania, priority 2006, dated 2013).
The name of at least one read-out is uncertain.

Target: T1, MMP-7 (Homo sapiens, UniProt P09237)
T1 construct: BIOMOL International LP, MMP-7 (recombinant, catalytic domain); purchased BIOMOL International LP
T1 sequence (P09237 95-267): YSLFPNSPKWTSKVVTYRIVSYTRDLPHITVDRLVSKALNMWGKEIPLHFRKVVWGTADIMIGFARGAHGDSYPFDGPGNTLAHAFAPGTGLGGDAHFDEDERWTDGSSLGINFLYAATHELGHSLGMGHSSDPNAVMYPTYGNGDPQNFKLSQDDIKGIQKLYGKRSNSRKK
Assay: MMP-7 enzyme kinetic parameters, Michaelis-Menten fit of initial velocities
Assay type: biochemical
Details: MMP-7 42 nM, 298 K, standard buffer
Experimental: At rt, an aliquot (2 μL) of active MMP-7 (0.454 μg/μL) was added into 0.998 mL of a freshly prepared solution of biosensor I at a known concentration in standard buffer. The extinction coefficient of I, ε=15,000 M^−1 cm^−1 at 280 nm in water, was determined from a solution containing the weighed sample. At approximately 3 min intervals, 70 μL aliquots were removed from the reaction mixture and immediately quenched with 30 μL of a 40 mM EDTA solution. Each aliquot was analyzed by HPLC with the gradient: time 0, A/B=75/25; 0-30 min, linear increase to A/B=45/55; 30-32 min, linear change to A/B=20/80; 32-42 min, A/B=20/80. The retention times for I and II were 15.6 min and 17.9 min, respectively. The enzyme activity was determined from the initial rate of increase in the concentration of cleaved sensor II, during the consumption of the first 10-15% of substrate I. The absorbance at 280 nm of the growing peak at 17.9 min was integrated and compared for each time point. Initial velocities were measured at substrate I concentrations of 6, 16, 28, 38, 48, 74 and 100 μM.
The kcat/KM value for all peptide substrates was calculated based on the Michaelis-Menten equation (Equation 1) after fitting the activity data at varying substrate concentrations with a non-linear regression curve: […]

Substance: Biosensor I: monopropargyl-cryptophane-A 7 coupled by [3+2] cycloaddition to azidopeptide 1 (RKRPLALWRSRK); MMP-7-responsive 129Xe biosensor (cyclised or stapled)
- kcat/KM: 7200 M⁻¹ s⁻¹
